Laboratory results published in PubChem BioAssay (NCATS).
This list was built around the results that the source calls inconclusive (neither active nor inactive); the mix of calls is not that of the screen. A potency beside an inconclusive call is a rough fit, not a confirmed value. The source made the active and inactive calls. The call rests on the fitted dose curve; in most records, active means well fitted inhibition curve with a large enough effect; inconclusive means small, poorly fitted or top-dose-only effect, or another doubt; inactive means no such curve, though single readings can be large or run the other way.

The chains behind the UniProt entries cited, without tags or fusion partners. Where a name states a change or a piece, a line headed by the entry shows the natural chain unless it says otherwise.
UniProt Q9UNA4: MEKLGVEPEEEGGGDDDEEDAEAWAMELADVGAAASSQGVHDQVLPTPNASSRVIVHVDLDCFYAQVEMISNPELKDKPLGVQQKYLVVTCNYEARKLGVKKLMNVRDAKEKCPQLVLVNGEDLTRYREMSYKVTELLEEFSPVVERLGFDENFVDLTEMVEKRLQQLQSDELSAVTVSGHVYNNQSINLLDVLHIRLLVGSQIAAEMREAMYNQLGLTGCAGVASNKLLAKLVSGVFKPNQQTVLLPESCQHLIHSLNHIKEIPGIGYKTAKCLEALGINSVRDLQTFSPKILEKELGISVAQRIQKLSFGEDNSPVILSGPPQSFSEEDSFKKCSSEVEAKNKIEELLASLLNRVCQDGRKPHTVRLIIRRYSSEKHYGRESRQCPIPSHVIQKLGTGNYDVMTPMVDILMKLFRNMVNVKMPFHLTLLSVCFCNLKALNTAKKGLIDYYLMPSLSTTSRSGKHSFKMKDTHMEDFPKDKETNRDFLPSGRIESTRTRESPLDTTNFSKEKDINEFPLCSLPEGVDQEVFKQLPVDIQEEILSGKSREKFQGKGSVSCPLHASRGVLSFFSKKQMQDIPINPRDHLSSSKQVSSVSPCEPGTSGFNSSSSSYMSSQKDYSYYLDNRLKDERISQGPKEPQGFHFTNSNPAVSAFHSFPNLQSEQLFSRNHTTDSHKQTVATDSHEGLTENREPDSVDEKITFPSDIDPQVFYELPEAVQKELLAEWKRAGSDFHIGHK

Molecular target: DNA polymerase iota (Homo sapiens) (UniProt Q9UNA4)
Assay: qHTS for Inhibitors of Polymerase Iota: Confirmatory Assay for Cherry-picked Compounds (AID 720496)
Conditions: Pol iota primer extension, TAMRA/BHQ fluorescence
From the text: DNA polymerases, such as polymerase iota (Pol iota), are involved in DNA repair. Pol iota specifically plays an important role in translesion synthesis, where the normal high-fidelity DNA polymerases cannot proceed and DNA synthesis stalls. […] Thus, while Pol eta and most likely Pol iota's normal functions are to protect humans against the deleterious consequences of DNA damage, under certain conditions they can have deleterious effects on human health. As a consequence, small molecule inhibitors of Pol iota (identified from a high throughput replication assay) have potential therapeutic applications. A 1536-well format, fluorescence based, high-throughput screen (AID 588590) is developed in collaboration with the National Institute of Child Health & Human Development (NICHD) to screen for inhibitors of the Pol eta enzyme. This screen is used to validate the activity of the selected compounds from the primary assay against the human Pol eta. Inhibition is the desired outcome for this assay. NIH Chemical Genomics Center [NCGC] NIH Molecular Libraries Probe Centers Network [MLPCN] MLPCN Grant: MH090825 Assay Submitter (PI): Roger Woodgate, NICHD
Three microliters of reagents (buffer in column 3 and 4 as negative control while 10 nM Pol iota in columns 1, 2, and 5-48) were dispensed into a 1536-well black solid-bottom plate. Compounds (23 nL) were transferred via Kalypsys pin tool equipped with 1536-pin array. The plates were then incubated for 15 min at room temperature, and 1 uL of substrate was added to start the reaction for a final concentration of 50 nM. The substrate was made by the annealing of unlabeled oligodeoxynucleotide primer (59-[…]-39) and TAMRA-labeled reporter strand (59-[…]-6-TAMRA-39) to oligodeoxynucleotide template labeled with BHQ-2 (59-BHQ-2-[…]-39) described in detail at the Yamanaka et.al. (PLOS, 2012) reference paper. The assay plates were initially read after 0 min and again after 10 min of kinetic reaction using the PerkinElmer Viewlux reader equipped with 525 nm excitation and 598 nm emission filters.
Potency means the concentration at half of the fitted maximal effect.

| Structure (SMILES) | Potency |
| --- | --- |
| Cc1ccc(CN2C(=O)N/C(=C\c3cccn3-c3cccc(C(=O)O)c3)C2=O)cc1 | active: 21.2 µM |
| COc1ccccc1NC(=O)c1cnc(SCC(=O)N2CCOCC2)n(C)c1=O | inconclusive: 75.2 µM [inhibitor, partial curve] |
| O=C1C(=Cc2cccc(O)c2O)SC(=S)N1CCCN1CCOCC1 | inconclusive: 84.4 µM [inhibitor, single point] |
| COc1ccccc1NC(=O)c1cc2ccccc2o/c1=N\O | inconclusive: 59.7 µM [inhibitor, partial curve] |
| COc1cccc(CN(C(=O)/C=C/c2ccco2)C2CCS(=O)(=O)C2)c1 (stereo not given) | inconclusive: 75.2 µM [inhibitor, partial curve] |
| Cc1ccc(CNc2ccc(O)cc2)cc1 | inconclusive: 84.4 µM [inhibitor, single point] |
| O=C(COC(=O)c1ccccc1O)Nc1ncc(Cl)cc1Cl | inconclusive: 59.7 µM [inhibitor, partial curve] |
| O=c1nc2cccc3c2=c(/c1=C(\O)c1ccccc1)c1ccccc1c3=O | inconclusive: 75.2 µM [inhibitor, partial curve] |
| Cc1oc(-c2ccc(Cl)cc2)cc1-c1nn2c(-c3ccoc3C)nnc2s1 | inconclusive: 42.3 µM [inhibitor, partial curve] |
| O=C(NCc1ccccc1C(F)(F)F)c1cccc2c1C(=O)c1ccc(N3CCC(N4CCCCC4)CC3)cc1S2(=O)=O | inconclusive: 84.4 µM [inhibitor, partial curve] |
| COc1ccc(C(=O)c2sc3nc(-c4ccccc4)ccc3c2N)cc1OC | inconclusive: 59.7 µM [inhibitor, partial curve] |
| O=C(CCc1ccco1)CCc1ccco1 | inconclusive: 75.2 µM [inhibitor, partial curve] |
| CCCN(C(=O)c1cc2c(s1)CCC2)c1c(N)n(Cc2ccccc2)c(=O)[nH]c1=O | inconclusive: 37.7 µM [inhibitor, partial curve] |
| Oc1c(C=Nc2cccc3nsnc23)ccc2ccccc12 | inconclusive: 84.4 µM [inhibitor, single point] |
| O=C(O)c1ccc(CSc2nc3ccc(NC(=O)c4ccccc4C(=O)O)cc3s2)cc1 | inconclusive: 84.4 µM [inhibitor, partial curve] |
| COCCN1C(=O)C(=O)/C(=C(/O)c2cccc(OC)c2)C1c1ccco1 (stereo not given) | inconclusive: 75.2 µM [inhibitor, partial curve] |
| COc1cc([N+](=O)[O-])ccc1NC(=O)COC(=O)c1ccc(NC(N)=O)cc1 | active: 42.3 µM |
| C=CCN1C(=O)/C(=C2/Sc3ccccc3N2CCCS(=O)(=O)O)SC1=S | inconclusive: 75.2 µM [inhibitor, partial curve] |
| CCOC(=O)CN1C(=O)S/C(=C\c2ccc(-c3ccc(C(=O)O)c(Cl)c3)o2)C1=O | inconclusive: 59.7 µM [inhibitor, partial curve] |
| Cc1ccccc1NC(=O)CSc1ccsc1[N+](=O)[O-] | active: 18.9 µM |

7 entries from above, comma-delimited:
Structure (SMILES),Potency
COc1cccc(CN(C(=O)/C=C/c2ccco2)C2CCS(=O)(=O)C2)c1 (stereo not given),"inconclusive: 75.2 µM [inhibitor, partial curve]"
Cc1ccc(CNc2ccc(O)cc2)cc1,"inconclusive: 84.4 µM [inhibitor, single point]"
O=C(COC(=O)c1ccccc1O)Nc1ncc(Cl)cc1Cl,"inconclusive: 59.7 µM [inhibitor, partial curve]"
O=c1nc2cccc3c2=c(/c1=C(\O)c1ccccc1)c1ccccc1c3=O,"inconclusive: 75.2 µM [inhibitor, partial curve]"
Cc1oc(-c2ccc(Cl)cc2)cc1-c1nn2c(-c3ccoc3C)nnc2s1,"inconclusive: 42.3 µM [inhibitor, partial curve]"
O=C(NCc1ccccc1C(F)(F)F)c1cccc2c1C(=O)c1ccc(N3CCC(N4CCCCC4)CC3)cc1S2(=O)=O,"inconclusive: 84.4 µM [inhibitor, partial curve]"
COc1ccc(C(=O)c2sc3nc(-c4ccccc4)ccc3c2N)cc1OC,"inconclusive: 59.7 µM [inhibitor, partial curve]"

Additional results follow.

| Structure (SMILES) | Potency |
| --- | --- |
| COc1ccc(C2Nc3ccccc3C(=O)N2Cc2ccco2)cc1COc1ccc(N)cc1 (stereo not given) | active: 75.2 µM |
| C=C(C)C(=O)Nc1cccc(C2=NOC3(C2)C[C@@H](C(N)=O)N(C(=O)/C=C/CC)C3)c1 (stereo not given in full) | inconclusive: 47.4 µM [inhibitor, partial curve] |
| N#C/C(=C\c1ccc([N+](=O)[O-])o1)C(=O)Nc1ccc(F)cc1 | inconclusive: 67 µM [inhibitor, partial curve] |
| Cc1ccc(-c2cc(C(=O)N/N=C/c3ccc([N+](=O)[O-])o3)c3ccccc3n2)o1 | inconclusive: 75.2 µM [inhibitor, partial curve] |
| Oc1ccc(C=Nc2ccc(N3CCOCC3)cc2)c(O)c1 | inconclusive: 67 µM [inhibitor, partial curve] |
| O=C(Cn1c2ccccc2c(=O)c2ccccc21)N/N=C/c1cc([N+](=O)[O-])ccc1N1CCCCCC1 | inconclusive: 2.67 µM [inhibitor, full curve] |
| COc1cc(/C=N/NC(=O)c2cc(-c3cccn3C)n[nH]2)cc(OC)c1OC | inconclusive: 26.7 µM [inhibitor, full curve] |
| O=C(CCS(=O)(=O)c1ccc(Br)cc1)NCCc1ccccc1 | inconclusive: 67 µM [inhibitor, partial curve] |
| O=C(O)c1cccc(NC(=S)N/N=C/c2ccccc2OCc2cccc(Br)c2)c1 | inconclusive: 84.4 µM [inhibitor, single point] |
| O=C(NCc1ccc2c(c1)OCO2)c1cc2ncc(Br)cn2n1 | inconclusive: 67 µM [inhibitor, partial curve] |
| N#Cc1c(NC(=O)/C=C/C(=O)O)sc2c1CCN(Cc1ccccc1)C2 | active: 47.4 µM |
| Cc1cc(/C=N/Nc2ccc([N+](=O)[O-])cn2)c(C)n1-c1ccc(C(=O)O)cc1 | inconclusive: 84.4 µM [inhibitor, single point] |
| O=C1Nc2cc3c(cc2C1=O)sc1ccccc13 | inconclusive: 42.3 µM [inhibitor, partial curve] |
| Oc1ccc(CNc2cccnc2)c2cccnc12 | inconclusive: 75.2 µM [inhibitor, partial curve] |
| C=CCNC(=O)COC(=O)c1c2c(nc3ccccc13)CCC2 | inconclusive: 67 µM [inhibitor, partial curve] |
| COc1cc(/C=C(/C#N)c2nc3ccccc3[nH]2)ccc1Oc1ncccc1[N+](=O)[O-] | inconclusive: 67 µM [inhibitor, partial curve] |
| O=C1/C(=C\c2c(NCCOCCO)nc3ccccn3c2=O)SC(=S)N1Cc1ccco1 | inconclusive: 67 µM [inhibitor, partial curve] |
| CCc1ccccc1NC(=O)c1ccc(Cn2nc(N3CCN(c4ccccc4)CC3)ccc2=O)o1 | inconclusive: 59.7 µM [inhibitor, partial curve] |
| O=C(COC(=O)c1ccc([N+](=O)[O-])o1)NC1CCCCC1 | inconclusive: 84.4 µM [inhibitor, single point] |
| COc1ccc(-c2nnc(Nc3ccc(S(=O)(=O)Nc4nccs4)cc3)c3ccccc23)cc1 | inconclusive: 84.4 µM [inhibitor, partial curve] |
